A short description of the assay: IkB Signaling. The settings on record: ABC-DLBCL IkBa-CBG/CBR dual luciferase ratio (green luciferase fused to IkBa over red control in OCI-Ly3 lymphoma cells), 4 h. In a few lines: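 In this assay, an IκBα–CBG68 fusion accumulates when IKK-driven degradation is blocked; native CBR normalizes for cell number. OCI-Ly3 cells were treated 4 h with compound and doxycycline, then green and red light read after Chroma-Glo addition.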
[1] abbreviates: measured here: control luc red channel unless noted.
Setting [2] is: measured here: IkB-luc green channel.
Setting [3] is: measured here: control luc red channel.

Some of the results follow. Shown are side measurements of this screen, not its main read-out; they come without a call. The list favours compounds with an active or inconclusive main result. The note in brackets gives the kind of curve behind each potency; many fits are weak.

What is called AC50 is the concentration at which the activity in the assay is half-maximal. As to `CCc1ccc(NC(=O)Cn2c(=O)c3cccn3c3ccccc32)cc1`, the AC50 under setting [1] is 10 µM [falling, partial curve]. Same read-out and setting: the result for `Cc1nn(-c2ccccc2)c(C)c1C(=O)OCC(=O)Nc1ccc2c(c1)OCO2` reads 15.8 µM [falling, partial curve]; that for `CCN(CC)S(=O)(=O)c1ccc2c(c1)N(CC(=O)N1CCN(c3cccc(C)c3)C(C)C1)C(=O)CO2` (stereo not given), 7.94 µM [falling, partial curve]. With `COc1ccc(-c2csc3nc(-c4ccc(Cl)cc4)oc(=O)c23)cc1`, the AC50 under setting [1] is 3.16 µM [falling, full curve]. Same read-out and setting: next, `Cc1cccc(NC(=O)CCn2cnnn2)c1`: 5.01 µM [falling, full curve]. Same read-out and setting: next, `COc1cc(C(=O)Nc2ccc3nc4n(c(=O)c3c2)CCCCC4)cc(OC)c1OC`: 15.8 µM [falling, partial curve]. As to `CCOC(=O)c1ccoc1CSCc1ccc(C(=O)OC)o1`, the AC50 is 39.8 µM [rising, single point] under setting [2] and 15.8 µM [rising, partial curve] under setting [3]. With `COc1ccccc1-n1cnc2cc(NCc3ccco3)ccc21`, the AC50 under setting [1] was 10 µM [falling, partial curve].

Consider `O=S(=O)(Nc1ccc2c(c1)OCCO2)c1ccc2oc3ccccc3c2c1`, for which the AC50 under setting [1] is 15.8 µM [falling, partial curve]. Same read-out and setting: next, `COc1ccc(S(=O)(=O)N2CCC(Oc3cccc(C(F)(F)F)c3)CC2)cc1OC`: 25.1 µM [falling, single point].

With `CCc1cccc(NC(=O)c2cnc(N3CCOCC3)c3ccccc23)c1`, the AC50 under setting [1] was 6.31 µM [rising, single point]. In the case of `CCOC(=O)c1cc(-c2ccccc2)n(CCCC(=O)Nc2ccc(C)c(Cl)c2)c1C`, the AC50 under setting [1] was 3.98 µM [rising, partial curve]. Still for that read-out and setting: the result for `Cc1ccc(-n2c(=O)c3c(C)c(C(=O)N(C)C)sc3n(CC(=O)N(C)c3ccccc3)c2=O)cc1C` reads 0.0158 µM [rising, full curve]; that for `Cc1ccc(C)c(NC(=O)CSc2nc3nccnc3c(=O)n2CCc2c[nH]c3ccccc23)c1`, 12.6 µM [falling, partial curve]; that for `Cc1ccc(-c2nnc(SCC(=O)N3c4ccccc4NC(=O)C3(C)C)n2N)cc1`, 2.51 µM [falling, full curve].

`CCOc1ccc2c(ccc(/C=C\c3cc(C)c4cccnc4c3O)[n+]2C)c1`: under setting [1], the AC50 was 3.98 µM [falling, partial curve]. Turning to `COc1cc(C(=O)NCCc2sc(-c3ccc(C)cc3)nc2C)cc(OC)c1OC`, the AC50 under setting [1] was 20 µM [falling, single point].

Take `CC1CCN(C(=O)Cn2cc(SCC(=O)NCc3ccc(F)cc3)c3ccccc32)CC1`: the concentration at half-maximal activity (AC50) under setting [1] is 10 µM [falling, partial curve]. Still for that read-out and setting: next, `CCCCc1ccc(C(=O)c2c(N)c(C(=O)Nc3cccc(OC)c3)c3ccccn23)cc1`: 10 µM [rising, partial curve].

For `O=C(CSc1nnc(-c2ccccc2Cl)n1Cc1ccco1)Nc1ccc2c(c1)OCCO2`, under setting [1], the AC50 is 12.6 µM [falling, partial curve]. Still for that read-out and setting: next, `COc1ccc(C(=O)/C=C/c2cn(CC(O)CN3CCCCCC3)c3ccccc23)cc1OC` (stereo not given): 25.1 µM [falling, partial curve]; `COc1ccc(NC(=O)CSc2nc3ccccc3nc2N2CCOCC2)c(OC)c1`: 39.8 µM [falling, single point]. Consider `CCc1ccc(NC(=O)CCc2c(C)nn(-c3ccc(N4CCCC4)nn3)c2C)cc1`, for which, under setting [1], the AC50 is 25.1 µM [falling, single point]. On the same count and under the same terms, next, `C=CC(C)(C)c1[nH]c2ccccc2c1C1=C(O)C(=O)C(c2c[nH]c3c(CC=C(C)C)cccc23)=C(O)C1=O`: 39.8 µM [falling, partial curve]. On the same count and under the same terms, next, `COc1ccc(-c2nc3ccccc3o2)cc1NC(=O)COc1cc(C)cc(C)c1`: 7.94 µM [rising, full curve]; `COc1ccc(NS(=O)(=O)c2cnc(N)nc2)cc1Cl`: 0.00501 µM [falling, full curve, poor fit].

Consider `CCCn1c(NCc2cc(OC)ccc2OC)nc2ccccc21`, for which the AC50 under setting [1] was 12.6 µM [falling, partial curve]. For `COc1ccc(NC(=O)CCS(=O)(=O)c2cc3c4c(c2)CCN4C(=O)CC3)c(OC)c1`, the AC50 runs as follows: under setting [2], 0.794 µM [rising, single point]; under setting [3], 0.794 µM [rising, full curve]. For `O=C(COc1ccc2oc3c(c2c1)CCCC3)Nc1cccc(Br)c1`, under setting [1], the AC50 is 25.1 µM [falling, partial curve]. Same read-out and setting: next, `Cn1c(=O)oc2cc(S(=O)(=O)N3CCC4(CC3)OCCO4)ccc21`: 2 µM [falling, full curve, poor fit]; `CCC(C)NC(=O)CCCn1c(=O)c2cccn2c2ccccc21` (stereo not given): 39.8 µM [falling, single point]; `Cc1ccc2nc(-c3ccccc3Cl)cc(C(=O)Nc3cc(C)on3)c2c1`: 10 µM [falling, partial curve]. Still for that read-out and setting: next, `COc1ccc(C2C(=O)N(C3CCCCCC3)CC(=O)N2CCc2ccc(Cl)cc2)cc1OC` (stereo not given): 3.16 µM [rising, single point]. The same measure, in the same setting: the result for `CCC(C(=O)NC1CCCCC1)n1c(SCc2ccccc2F)nc2ccncc21` (stereo not given) reads 15.8 µM [falling, partial curve]. Consider `CCc1ccc(NC(=O)CSc2ccc(-c3sc(-c4ccccc4)nc3C)nn2)cc1`, for which the AC50 under setting [1] is 1.58 µM [falling, full curve]. As to `Nn1c(SCC(=O)Nc2ccc(F)c(F)c2)nnc1C1CCCCC1`, the AC50 under setting [1] is 5.01 µM [falling, partial curve]. As for `Cc1ccc(C2CC(=O)N(Cc3ccc(F)cc3)c3c2c(C)nn3-c2nc(C)cc(C)n2)cc1` (stereo not given), under setting [1], the AC50 is 15.8 µM [falling, single point].

As for `O=C(CN1CCN(Cc2ccc(F)cc2)C1=O)NCc1ccc(F)cc1`, the AC50 under setting [1] was 0.0251 µM [falling, full curve, poor fit]. On the same count and under the same terms, the result for `CCOC(=O)Cn1c(CN(C)Cc2ccccc2)nc2c1c(=O)n(C)c(=O)n2C` reads 39.8 µM [falling, single point]; that for `Cc1ccc(NC2(c3ccccc3)C(=O)c3ccccc3C2=O)cc1F`, 2.51 µM [falling, partial curve].

As to `CC1CCN(S(=O)(=O)c2ccc3c(c2)N(CC(=O)NCCCOC(C)C)C(=O)CO3)CC1`, under setting [1], the half-maximal activity concentration (AC50) was 5.01 µM [falling, single point].

With `CCc1ccccc1NC(=O)CN(c1ccccc1OC)S(=O)(=O)c1ccc(C)cc1`, the AC50 under setting [1] is 20 µM [falling, partial curve].

Consider `Cc1ccsc1CN(C(=O)COc1ccccc1Cl)C1CCS(=O)(=O)C1` (stereo not given), for which the AC50 under setting [1] is 25.1 µM [falling, single point]. As for `CN(CC(=O)Nc1ccc2c(c1)OCCO2)S(=O)(=O)c1ccc(Br)s1`, the AC50 under setting [1] was 12.6 µM [falling, partial curve]. Same read-out and setting: next, `Cc1nn(CCC(=O)Nc2ccc(Cl)cc2)c(C)c1S(=O)(=O)N1CCCCC1`: 12.6 µM [falling, single point]. On the same count and under the same terms, the result for `COc1ccc(-c2cc(C(=O)Nc3cc(C(F)(F)F)ccc3Cl)no2)cc1` reads 1.26 µM [rising, full curve]. The same measure, in the same setting: the result for `COc1ccccc1Cn1cc(C(=O)c2ccccc2)c(=O)c2cc(OC)c(OC)cc21` reads 31.6 µM [falling, single point]. With `Cc1ccc2c(CC(=O)Nc3nc(C)cs3)coc2c1`, the AC50 is, setting by setting: under setting [2], 10 µM [falling, partial curve]; under setting [3], 7.94 µM [falling, full curve]. Take `COC(=O)[C@H](NC(=O)c1cc(-c2ccccc2)nc2ccccc12)c1ccccc1`: under setting [1], the AC50 was 12.6 µM [falling, partial curve].

With `COc1ccccc1-c1cc2nc(C)c(CCC(=O)NCc3ccco3)c(C)n2n1`, the AC50 under setting [1] was 1 µM [falling, full curve]. The same measure, in the same setting: next, `O=C(O)c1ccc(NC(=O)c2ccc(Cl)c(S(=O)(=O)N3CCCCCC3)c2)cc1`: 15.8 µM [falling, partial curve]; `COC(=O)c1ccc(NC(=O)C(C)Sc2nc(=O)cc(N)n2CCc2ccccc2)cc1` (stereo not given): 20 µM [falling, partial curve]; `Cc1nc2c3ccccc3nc(NNC(=O)CCC(=O)O)n2n1`: 0.0316 µM [falling, full curve, poor fit]. Take `Cc1ccc(NC(=O)CN2C(=O)CCSc3ccccc32)c(C)c1`: the AC50 under setting [1] was 3.98 µM [rising, single point]. On the same count and under the same terms, the result for `COc1ccc(-c2csc(N(CC3CCCO3)C(=O)c3ccco3)n2)cc1` (stereo not given) reads 39.8 µM [falling, single point]; that for `COc1ccc(CCNC(=O)c2ccc3c(c2)nc(C)n3-c2ccc(Br)cc2)cc1OC`, 3.16 µM [falling, partial curve]; that for `COc1ccccc1C(=O)Nc1nnc(SCc2cc(=O)c3ccccc3[nH]2)s1`, 25.1 µM [falling, partial curve].

In the case of `Fc1ccccc1N1CCN(c2nc3ccccc3n3nnnc23)CC1`, the AC50 under setting [1] was 0.501 µM [falling, full curve]. For the compound `O=C(c1ccc2c(c1)OCO2)[C@@H]1[C@@H]2C(=O)N(C3CCCCC3)C(=O)[C@@H]2C2c3ccccc3C=CN21` (stereo not given in full), under setting [1], the AC50 was 2 µM [falling, full curve]. On the same count and under the same terms, the result for `CCN(C(=O)c1ccc(C(=O)N(CC)c2ccccc2C)cc1)c1ccccc1C` reads 20 µM [falling, single point]. As to `CCOc1ccc(NC(=O)c2cc3cc4ccc(C)cc4nc3o2)cc1`, the AC50 under setting [1] is 12.6 µM [rising, partial curve].

Take `Brc1cccc(-c2nnn3c2nc(NC2CCCCC2)c2ccccc23)c1`: the AC50 under setting [1] is 1 µM [falling, full curve].

Values taken from PubChem BioAssay AID445 (National Center for Advancing Translational Sciences (NCATS), 2006).
